PubChem BioAssay AID743456, Peter MacCallum Cancer Centre – 2014
Shown is a random part of 878 reagents tested. In the full data, 27 (3.1%) got an active call. 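27 mimics are marked active, unlike an earlier stated count of 24; the viability threshold is described inconsistently.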 Entries without a mark were called inactive. Not all columns of the deposit are shown. No sequences are given here. The record does not give: the amount of reagent.

Assay: 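miRNA mimics altering how resistant colon cancer cells respond to vorinostat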 (primary screen)
System: human HCT116-VR colon cancer cells, a vorinostat-resistant HCT116 line
Reagent: miRNA mimic
Timing: about 3 days from transfection to readout; drug present for the last 24 h
Treatment: vorinostat at 2.5 µM final for 24 h
Measurement: 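Cell viability from CellTiter-Fluor signal and caspase activity from luminescence after 24 h vorinostat at 2.5 µM, given as robust z-scores and as ratios to mock-transfected wells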
Reading the numbers: viability robust z-score: higher = more viable cells; caspase robust z-score: higher = more caspase activity, more apoptosis
Rule for the call: 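a mimic counts as active if it lands in a lowered-viability class or a caspase-activation class; wells with too few cells without drug are left out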

| microRNA | viability robust z-score | caspase robust z-score | viability hit class | caspase hit class |
| --- | --- | --- | --- | --- |
| hsa-miR-92a-1* | -2.11 | 3.61 | no change | no change |
| hsa-miR-302b* | 0.36 | -0.42 | no change | no change |
| hsa-miR-30c-2* | -0.94 | 0.66 | no change | no change |
| hsa-miR-650 | -0.45 | 0.62 | no change | no change |
| hsa-miR-1280 | -1.95 | -1.03 | no change | no change |
| hsa-miR-562 | 0.53 | -0.61 | no change | no change |
| hsa-miR-377* | -0.9 | 0.14 | no change | no change |
| hsa-miR-222 | 0.57 | 2.5 | no change | no change |
| hsa-miR-30d* | -0.32 | -0.92 | no change | no change |
| hsa-miR-30a | 1.16 | -0.15 | no change | no change |
| hsa-miR-130b* | -1.99 | 0.01 | no change | no change |
| hsa-miR-1293 | -3.16 (active) | 2.51 | reduced viability | no change |
| hsa-miR-519e | -0.17 | 2.97 | no change | no change |
| hsa-miR-938 | -0.27 | 2.54 | no change | no change |
| hsa-miR-376b | -0.17 | -0.79 | no change | no change |
| hsa-miR-208a | 0.38 | 1.68 | no change | no change |
| hsa-miR-223* | 0.62 | -0.62 | no change | no change |
| hsa-miR-516b | -2.65 | 2.73 | no change | no change |
| hsa-miR-449a | -1.84 | 4.25 | no change | no change |
| hsa-miR-217 | -0.75 (active) | 5.56 | no change | caspase activation |
| hsa-miR-1254 | -1.51 | 4.29 | no change | no change |
| hsa-miR-626 | 1.45 | 1.26 | no change | no change |
| hsa-miR-141* | -1.38 | -0.76 | no change | no change |
| hsa-miR-99a | 0.16 | -0.14 | no change | no change |
| hsa-miR-181d | -0.96 | 1.32 | no change | no change |
| hsa-miR-455-3p | 1.29 | -0.48 | no change | no change |
| hsa-miR-513a-5p | -0.54 | 0.17 | no change | no change |
| hsa-miR-17 | -0.34 | 0.16 | no change | no change |
| hsa-miR-887 | -0.46 | 1.88 | no change | no change |
| hsa-miR-181a* | 1.17 | -0.39 | no change | no change |
| hsa-miR-921 | -0.08 | 0.2 | no change | no change |
| hsa-let-7f-2* | -0.67 | 0.3 | no change | no change |
| hsa-miR-596 | -0.7 | 0.83 | no change | no change |
| hsa-miR-1226* | 1.04 | -0.4 | no change | no change |
| hsa-miR-363* | -2.96 (active) | 3.75 | reduced viability | no change |
| hsa-miR-302f | -1.24 | -1.02 | no change | no change |
| hsa-miR-298 | -1.02 | 3.84 | no change | no change |
| hsa-let-7e | -0.16 | -0.15 | no change | no change |
| hsa-miR-505* | -0.18 (active) | 5.22 | no change | caspase activation |
| hsa-miR-188-3p | -0.92 | -0.42 | no change | no change |
| hsa-miR-296-3p | 0.53 | -0.07 | no change | no change |
| hsa-miR-205 | -0.82 | -0.45 | no change | no change |
| hsa-miR-223 | 0.75 | 2.87 | no change | no change |
| hsa-miR-431 | 0.12 | 0.99 | no change | no change |
| hsa-miR-1207-5p | -1.67 | 0.05 | no change | no change |
| hsa-miR-190 | -0.22 | -0.95 | no change | no change |
| hsa-miR-20b* | 0.04 | -0.68 | no change | no change |
| hsa-miR-1253 | 0.3 | 1.56 | no change | no change |
| hsa-miR-2113 | -0.86 | 0.2 | no change | no change |
| hsa-miR-892b | -2.65 | 2.94 | no change | no change |
